This is an account of results in patent publication US12325736B2, “Transduced T cells expressing human SSTR2 and application thereof” (Cornell University, priority 2016, dated 2025).

The test system of this data set is Jurkat tumors (100%-0% SSTR2+). The data set is described as follows: PET/CT DOTATOC uptake by subcutaneous Jurkat T cell xenografts (0-100% SSTR2+). Format: in vivo, NSG mice. The protocol: All animal experiments were performed in strict accordance with the recommendations in the Guide for the Care and Use of Laboratory Animals of the National Institutes of Health. This study's animal protocol was approved by the Institutional Laboratory Animal Use and Care Committee of Weill Cornell Medicine. SSTR2 expressing Jurkats were spiked with increasing numbers of non-transduced Jurkats to derive distinct cultures containing defined percentages of SSTR2 expression ranging from 100-0%. For each subcutaneous xenograft, 5×10^6 total cells were resuspended in 100 μl Matrigel Basement Membrane Matrix (Corning) and injected bilaterally into nonobese diabetic (NOD)/LtSz Prkdc^scid I12rg^tm1Wj1/J (NSG) mice (Jackson Laboratory). Measurements of tumor size were made using an external digital caliper. Tumor volume was calculated by using the modified ellipsoid formula 1/2(Length×Width^2). Length was measured as the longer dimension. Each dimensional measurement was rounded to the nearest 0.5 cm.
Projection data was acquired in a cone-beam geometry with approximately […] steps at 1 degree angular increments. At least 10 million coincidence events were acquired for PET per study using a 250 to 750 keV energy window and a 6 ns timing window. […] To compute DOTATOC uptake by Jurkat tumors, the ellipsoidal ROIs (Amide) were placed to enclose subcutaneous tumors that closely match overall tumor size and shape. For systemic 8505C tumor models, ellipsoids were drawn separately on the left and right sides of lungs to enclose much of five lobes of mouse lungs. The % ID/cm^3 values, computed relative to the counts in a reference tube, can be approximated to a standard uptake value (SUV^61) by dividing % ID/cm^3 by four, assuming injection efficiency of 100% and 25 g of body weight. Visualization and analyses of PET/CT images were performed using Amide (amide.sourceforge.net).

The mark [1] stands for this setting: tumors larger than 65 mm^3, cutoff 1.1% ID/cm^3, 1% SSTR2+.

Structures are written as SMILES.

Consider `C[C@@H](O)[C@@H]1NC(=O)[C@H](CCCCN)NC(=O)[C@@H](Cc2c[nH]c3ccccc23)NC(=O)[C@H](Cc2ccc(O)cc2)NC(=O)[C@@H](NC(=O)[C@@H](Cc2ccccc2)NC(=O)CN2CCN(CC(=O)O)CCN(CC(=O)O)CCN(CC(=O)O)CC2)CSSC[C@@H](C(=O)N[C@H](CO)[C@@H](C)O)NC1=O` [DOTATOC, 1,4,7,10-tetraazacyclododecane-N^I,N^II,N^III,N^IIII-tetraacetic acid (D)-Phe^1-Tyr^3-octreotide], for which the specificity runs as follows: (tumors below 65 mm^3, cutoff 0.6% ID/cm^3) 95%; under setting [1], 95%. Besides, the “detection sensitivity (% true positive rates)” value runs as follows: (tumors below 65 mm^3, cutoff 0.6% ID/cm^3, 1% SSTR2+) 54%; (tumors below 65 mm^3, cutoff 0.6% ID/cm^3, 10% SSTR2+) 69%; (tumors below 65 mm^3, cutoff 0.6% ID/cm^3, 100% SSTR2+) 95%. Besides, the sensitivity is, setting by setting: under setting [1], 87%; (tumors larger than 65 mm^3, cutoff 1.1% ID/cm^3, SSTR2+ T cell density at or above 10%) > 95%.
